Data as given in PubChem BioAssay AID686943 (Drosophila RNAi Screening Center, 2013)
The deposit covers about 23,000 reagents; below is an unselected part of those that have a named target and a result. 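Extra replicates exist only for a retested subset of genes; insulin dose and duration not given; both raised and lowered dpERK matter.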 The numbers tell different reagents against one gene apart. The record does not give: the amount of reagent, the time to read-out.

- Screen: 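Fly genes whose loss alters ERK activation after insulin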 (primary screen)
- Cells: Drosophila S2R+ haemocyte-like cells expressing YFP-tagged ERK (Rolled)
- Reagent: long dsRNA against Drosophila genes
- Treatment: insulin stimulation versus unstimulated cells; dose and duration not given
- Measurement: 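Antibody staining for doubly phosphorylated ERK divided by ERK-YFP signal, as plate z-scores, in insulin-treated and untreated cells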
- Reading the numbers: replicate 1, z-score of dpERK with insulin and replicate 2, z-score of dpERK with insulin: higher = more active ERK per ERK-YFP after insulin; replicate 1, z-score of dpERK under basal conditions: higher = more basal active ERK per ERK-YFP; replicate 1, z-score of ERK-YFP with insulin: higher = more YFP-tagged ERK signal

predicted target	reagent no.	replicate 1, z-score of dpERK with insulin	replicate 2, z-score of dpERK with insulin	replicate 1, z-score of dpERK under basal conditions	replicate 1, z-score of ERK-YFP with insulin
GM130 (GeneID 37524)	1	-0.43	0.84	0.1	0.29
CG5934 (GeneID 43289)	1	-0.22	-0.11	-0.66	-0.31
CG18545 (GeneID 41264)	1	-0.26	0.27	0.6	0.65
salm (GeneID 34569)	1	-0.09	0.3	1.34	-0.93
dgt5 (GeneID 36364)	1	-0.45	-0.63	0.75	0.21
CG31463 (GeneID 40978)	1	-0.49	-0.35	-0.94	0.46
CG15336 (GeneID 31742)	1	0.3	1.18	0.02	0.63
galla-1 (GeneID 246485)	1	-0.44	0.47	0.41	0.11
CG8414 (GeneID 36774)	1	1.12	0.53	1.46	0.5
CG8543 (GeneID 38837)	1	0.18	-0.06	1.25	0.2
CG8543 (GeneID 38837)	2	1.5	0.86	0.5	-0.39
CG32750 (GeneID 326238)	1	-0.89	1.23	0.98	0.78
Adi1 (GeneID 326189)	1	1.26	0.9	0.72	-0.06
Adi1 (GeneID 326189)	2	0.13	1.47	0.42	0.04
lig (GeneID 35771)	1	0.6	0.93	-0.5	-1.53
lig (GeneID 35771)	2	-1.85	-3.33	-0.05	0.07
CG30274 (GeneID 246521)	1	-0.43	0.07	-0.55	-0.04
CG33958 (GeneID 37088)	1	-0.09	-0.03	0.03	0.28
CG33958 (GeneID 37088)	2	0.04	0.86	-0.75	0.2
CG5043 (GeneID 35046)	1	0.04	0.42	-0.58	-0.19

Entries listed so far whose gene name begins with A or a (2):
predicted target	reagent no.	replicate 1, z-score of dpERK with insulin	replicate 2, z-score of dpERK with insulin	replicate 1, z-score of dpERK under basal conditions	replicate 1, z-score of ERK-YFP with insulin
Adi1 (GeneID 326189)	1	1.26	0.9	0.72	-0.06
Adi1 (GeneID 326189)	2	0.13	1.47	0.42	0.04

Continued:
predicted target	reagent no.	replicate 1, z-score of dpERK with insulin	replicate 2, z-score of dpERK with insulin	replicate 1, z-score of dpERK under basal conditions	replicate 1, z-score of ERK-YFP with insulin
Pde8 (GeneID 37741)	1	-0.4	0.25	-0.89	-0.02
mts (GeneID 45959)	1	-2.75	-4.06	0.66	-0.64
maca (GeneID 41892)	1	-0.93	-1.46	0.35	-1.19
CG14185 (GeneID 40197)	1	1.3	0.5	0.4	-0.04
Ir93a (GeneID 42471)	1	-0.08	0.44	-0.38	0.69
Ir93a (GeneID 42471)	2	0.34	-0.05	0.32	-0.02
zuc (GeneID 34609)	1	0	-0.09	0.33	0.05
sn (GeneID 31717)	1	0.24	0.6	0.25	-0.29
Or56a (GeneID 37269)	1	0.74	0.13	-1.2	-0.96
CG31279 (GeneID 318657)	1	-0.27	0.09	-0.88	0.94
Dad (GeneID 42059)	1	0.02	-0.97	-1.34	1.24
spz (GeneID 43256)	1	-0.29	-0.25	0.82	-0.08
CG7362 (GeneID 41787)	1	0	0.95	-2.16	0
CCAP-R (GeneID 2768688)	1	1.05	0.17	0.59	0.08
CCAP-R (GeneID 2768688)	2	0.57	-0.03	-1.02	-0.12
CG33158 (GeneID 39834)	1	-0.56	0.43	0.03	0.85
CG33158 (GeneID 39834)	2	-0.29	0.05	-0.43	-0.36
CG33158 (GeneID 39834)	3	0.56	-0.19	0.2	0.52
Pkd2 (GeneID 34651)	1	1.24	-0.08	-1.14	-0.57
